Laboratory results: publication PMC11335277
Results are given in words; binding and its absence hold for the method and conditions named. In cells and extracts the contact can be indirect. Some results given as binding are weak or reduced against the parent protein; the word gives no strength. Sequences can lack the tags named with a protein.

By UniProt entry, the sequences of proteins in these tests, tags left out.
UniProt Q0GNC1: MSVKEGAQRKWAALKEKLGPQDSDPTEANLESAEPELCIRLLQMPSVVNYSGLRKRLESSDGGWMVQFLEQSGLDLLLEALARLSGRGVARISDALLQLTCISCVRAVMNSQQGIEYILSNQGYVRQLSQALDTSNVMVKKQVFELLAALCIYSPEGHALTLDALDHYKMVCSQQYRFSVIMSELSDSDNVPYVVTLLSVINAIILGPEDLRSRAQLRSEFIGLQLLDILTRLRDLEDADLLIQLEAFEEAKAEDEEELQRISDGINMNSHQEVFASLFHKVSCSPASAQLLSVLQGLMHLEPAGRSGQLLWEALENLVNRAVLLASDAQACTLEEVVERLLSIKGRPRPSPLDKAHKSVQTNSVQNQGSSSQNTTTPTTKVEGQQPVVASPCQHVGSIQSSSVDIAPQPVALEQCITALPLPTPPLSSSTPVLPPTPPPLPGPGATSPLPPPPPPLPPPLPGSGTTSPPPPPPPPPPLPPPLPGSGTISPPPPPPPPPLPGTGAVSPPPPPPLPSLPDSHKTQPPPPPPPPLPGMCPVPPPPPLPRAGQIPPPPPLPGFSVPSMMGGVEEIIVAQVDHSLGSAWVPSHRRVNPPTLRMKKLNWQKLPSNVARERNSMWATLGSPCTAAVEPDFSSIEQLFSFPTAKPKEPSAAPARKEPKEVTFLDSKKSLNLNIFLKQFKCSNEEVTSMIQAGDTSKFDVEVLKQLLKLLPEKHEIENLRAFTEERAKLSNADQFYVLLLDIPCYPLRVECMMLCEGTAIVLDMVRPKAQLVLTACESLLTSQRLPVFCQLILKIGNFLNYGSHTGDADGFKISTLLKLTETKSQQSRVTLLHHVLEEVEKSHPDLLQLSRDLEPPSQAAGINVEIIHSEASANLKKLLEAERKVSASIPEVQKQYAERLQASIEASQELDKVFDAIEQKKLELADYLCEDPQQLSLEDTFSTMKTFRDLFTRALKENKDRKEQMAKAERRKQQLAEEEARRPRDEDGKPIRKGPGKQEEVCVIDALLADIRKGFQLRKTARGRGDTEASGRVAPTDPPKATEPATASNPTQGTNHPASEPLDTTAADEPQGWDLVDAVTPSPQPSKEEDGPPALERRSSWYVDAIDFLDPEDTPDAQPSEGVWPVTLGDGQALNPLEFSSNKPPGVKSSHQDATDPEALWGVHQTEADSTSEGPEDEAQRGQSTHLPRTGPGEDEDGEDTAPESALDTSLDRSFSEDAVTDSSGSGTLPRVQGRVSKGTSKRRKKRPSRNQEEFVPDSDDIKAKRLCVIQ

Biological target: GFP-tagged inverted formin 2 (INF2-GFP) (UniProt Q0GNC1)
Assay: co-IP; anti-GFP antibody (2 µg) on Protein G Dynabeads; lysates (1% Triton X-100) of HT-22 cells co-expressing INF2-GFP or GFP with myc-CAP1 or myc-CAP2 and dsRed; 2 h at 8 °C; washing buffer 20 mM Tris/HCl pH 8.0, 100 mM NaCl; immunoblots for myc and β-actin

Row | Binder | binding
1 | myc-tagged cyclase-associated protein 1 (myc-CAP1) (protein, UniProt P40124 1-474) MADMQNLVERLERAVGRLEAVSHTSDMHCGYGDSPSKGAVPYVQAFDSLLANPVAEYLKMSKEIGGDVQKHAEMVHTGLKLERALLATASQCQQPAGNKLSDLLAPISEQIQEVITFREKNRGSKFFNHLSAVSESIQALGWVALAAKPGPFVKEMNDAAMFYTNRVLKEYRDVDKKHVDWVRAYLSIWTELQAYIKEFHTTGLAWSKTGPVAKELSGLPSGPSVGSGPPPPPPGPPPPPISTSSGSDDSASRSALFAQINQGESITHALKHVSDDMKTHKNPALKAQSGPVRSGPKPFSAPKPQTSPSPKPATKKEPALLELEGKKWRVENQENVSNLVIDDTELKQVAYIYKCVNTTLQIKGKINSITVDNCKKLGLVFDDVVGIVEIINSRDVKVQVMGKVPTISINKTDGCHAYLSKNSLDCEIVSAKSSEMNVLIPTEGGDFNEFPVPEQFKTLWNGQKLVTTVTEIAG | binds
2 | myc-tagged cyclase-associated protein 2 (myc-CAP2) (protein, UniProt Q9CYT6 1-476) MTDMAGLMERLERAVIRLEQLSAGLDGPPRGCGEVNGVNGGVAPSVEAFDKLINSMVAEFLKNSRVLAGDVETHAEMVHGAFQAQRAFLLMVSQYQQPQENEVAVLLKPISEKIQEIQTFRERNRGSNMFNHLSAVSESIAALGWIAVSPKPGPYVKEMNDAATFYTNRVLKDYKHSDLRHVDWVRSYLNIWSELQAYIREHHTTGLTWSKTGPVASTASAFSILSSGPGLPPPPPPPPPPGPPPPFENEDKKEEPSPSRSALFAQLNQGEAITKGLRHVTDDKKTYKNPSLRAQGQIRSPTKTHTPSPTSPKSNSPQKHTPVLELEGKKWRVEYQEDRNDLVISETELKQVAYIFKCDKSTLQIKGKVNSITVDNCKKFGLVFDHVVGIVEVINSKDIQIQVMGRVPTISINKTEGCHLYLSEDALDCEIVSAKSSEMNVLVPQDDDYREFPIPEQFKTIWDGSKLVTEPAEIMA | binds
